Experimental data taken from paper PMC2810305.
These are yes or no findings as the source states them, for the method shown. Some binding calls cover weakened binding; strength is not graded here.

T1: cytosolic glutamyl-tRNA synthetase (Cyt-gluRS) (AT5G26710) (Arabidopsis thaliana) (UniProt O82462)
T1 sequence: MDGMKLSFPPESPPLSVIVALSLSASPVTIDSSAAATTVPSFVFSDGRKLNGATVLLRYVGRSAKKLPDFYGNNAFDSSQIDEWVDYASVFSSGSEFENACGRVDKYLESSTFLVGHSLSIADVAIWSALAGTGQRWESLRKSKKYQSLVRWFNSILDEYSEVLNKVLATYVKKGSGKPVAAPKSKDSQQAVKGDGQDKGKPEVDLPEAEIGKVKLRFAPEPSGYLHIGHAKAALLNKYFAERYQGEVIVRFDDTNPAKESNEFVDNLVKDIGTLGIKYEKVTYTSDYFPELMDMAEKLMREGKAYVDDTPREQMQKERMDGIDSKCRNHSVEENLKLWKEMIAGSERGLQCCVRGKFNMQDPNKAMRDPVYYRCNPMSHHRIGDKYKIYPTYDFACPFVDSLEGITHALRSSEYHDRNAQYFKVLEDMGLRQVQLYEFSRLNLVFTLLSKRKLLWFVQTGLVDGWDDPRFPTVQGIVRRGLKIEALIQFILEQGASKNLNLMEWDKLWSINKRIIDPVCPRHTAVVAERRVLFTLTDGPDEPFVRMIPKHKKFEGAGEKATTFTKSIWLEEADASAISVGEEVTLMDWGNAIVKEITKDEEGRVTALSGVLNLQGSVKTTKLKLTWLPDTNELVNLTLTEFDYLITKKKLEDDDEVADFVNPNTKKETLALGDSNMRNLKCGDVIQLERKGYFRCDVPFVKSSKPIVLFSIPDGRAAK


Molecular target: T1, cytosolic glutamyl-tRNA synthetase (Cyt-gluRS) (AT5G26710) (Arabidopsis thaliana)
Test: two-hybrid; Gal4 based yeast two-hybrid system, AT5G26710 as bait; AH109 transformants spotted on -LW (selection of prey and bait plasmids) and -LWAH (reporter gene activation)

| Binder | binding |
| --- | --- |
| glutamine synthetase (AT5G35630) (enzyme, UniProt Q43127 1-430) MAQILAASPTCQMRVPKHSSVIASSSKLWSSVVLKQKKQSNNKVRGFRVLALQSDNSTVNRVETLLNLDTKPYSDRIIAEYIWIGGSGIDLRSKSRTIEKPVEDPSELPKWNYDGSSTGQAPGEDSEVILYPQAIFRDPFRGGNNILVICDTWTPAGEPIPTNKRAKAAEIFSNKKVSGEVPWFGIEQEYTLLQQNVKWPLGWPVGAFPGPQGPYYCGVGADKIWGRDISDAHYKACLYAGINISGTNGEVMPGQWEFQVGPSVGIDAGDHVWCARYLLERITEQAGVVLTLDPKPIEGDWNGAGCHTNYSTKSMREEGGFEVIKKAILNLSLRHKEHISAYGEGNERRLTGKHETASIDQFSWGVANRGCSIRVGRDTEAKGKGYLEDRRPASNMDPYIVTSLLAETTLLWEPTLEAEALAAQKLSLNV | binds |
| zinc finger protein (AT5G24930) (protein, UniProt Q940T9 1-362) MASKLCDSCKSATAALYCRPDAAFLCLSCDSKVHAANKLASRHARVWMCEVCEQAPAHVTCKADAAALCVTCDRDIHSANPLARRHERVPVTPFYDSVSSDGSVKHTAVNFLDDCYFSDIDGNGSREEEEEEAASWLLLPNPKTTTTATAGIVAVTSAEEVPGDSPEMNTGQQYLFSDPDPYLDLDYGNVDPKVESLEQNSSGTDGVVPVENRTVRIPTVNENCFEMDFTGGSKGFTYGGGYNCISHSVSSSSMEVGVVPDGGSVADVSYPYGGPATSGADPGTQRAVPLTSAEREARVMRYREKRKNRKFEKTIRYASRKAYAEMRPRIKGRFAKRTDTNESNDVVGHGGIFSGFGLVPTF | binds |
